Test system: T. gondii RHΔhxgprt
Type: cell-based, Toxoplasma gondii
Conditions: 1st infection cycle

CCC[C@@H]1C[C@@H](C(=O)N[C@@H]([C@H]2O[C@H](SC)[C@H](O)[C@@H](O)[C@H]2O)[C@H](C)Cl)N(C)C1 [Clindamycin]
apicoplast replication: significantly impaired
